Results deposited as PubChem BioAssay AID1159584 (Peter MacCallum Cancer Centre, 2016).
Shown is an unselected part of about 18,000 deposited reagents. Not all columns of the deposit are shown. The record does not give: the amount of reagent, the time to read-out.

Test: 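Knock-downs that harm CDH1-null cells more than parental MCF10A cells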 (primary screen)
System: human MCF10A breast epithelial cells, parental and CDH1-null
Reagents: siRNA against human genes
Measurement: 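ATP luminescence (CellTiter-Glo) viability per line relative to mean mock wells over all plates, and the ratio of CDH1-null to parental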
Reading the numbers: CDH1-null / parental viability ratio: higher = CDH1-null cells survive relatively better than parental; CDH1-null viability vs mock: higher = more viable CDH1-null cells
Units: CDH1-null viability vs mock in fraction of mock

{"gene knocked down": "ESRP2", "CDH1-null / parental viability ratio": 1.07, "CDH1-null viability vs mock": 0.86}
{"gene knocked down": "PLXNC1", "CDH1-null / parental viability ratio": 1.22, "CDH1-null viability vs mock": 0.66}
{"gene knocked down": "SLC16A13", "CDH1-null / parental viability ratio": 0.86, "CDH1-null viability vs mock": 0.54}
{"gene knocked down": "RTBDN", "CDH1-null / parental viability ratio": 1.02, "CDH1-null viability vs mock": 0.66}
{"gene knocked down": "HAND1", "CDH1-null / parental viability ratio": 1.23, "CDH1-null viability vs mock": 1.12}
{"gene knocked down": "CGB2", "CDH1-null / parental viability ratio": 0.98, "CDH1-null viability vs mock": 0.78}
{"gene knocked down": "DBNL", "CDH1-null / parental viability ratio": 0.73, "CDH1-null viability vs mock": 0.69}
{"gene knocked down": "SEC24A", "CDH1-null / parental viability ratio": 0.9, "CDH1-null viability vs mock": 0.92}
{"gene knocked down": "AP1S3", "CDH1-null / parental viability ratio": 0.95, "CDH1-null viability vs mock": 0.8}
{"gene knocked down": "TMEM59", "CDH1-null / parental viability ratio": 1.36, "CDH1-null viability vs mock": 0.91}
{"gene knocked down": "NDP", "CDH1-null / parental viability ratio": 1.11, "CDH1-null viability vs mock": 0.51}
{"gene knocked down": "MAMSTR", "CDH1-null / parental viability ratio": 1.21, "CDH1-null viability vs mock": 0.94}
{"gene knocked down": "ZNF32", "CDH1-null / parental viability ratio": 1.02, "CDH1-null viability vs mock": 0.51}
{"gene knocked down": "OR4K14", "CDH1-null / parental viability ratio": 0.71, "CDH1-null viability vs mock": 0.47}
{"gene knocked down": "FOXA2", "CDH1-null / parental viability ratio": 0.76, "CDH1-null viability vs mock": 0.52}
{"gene knocked down": "SAXO5", "CDH1-null / parental viability ratio": 0.75, "CDH1-null viability vs mock": 0.38}
{"gene knocked down": "DOCK9", "CDH1-null / parental viability ratio": 0.98, "CDH1-null viability vs mock": 0.8}
{"gene knocked down": "C12orf43", "CDH1-null / parental viability ratio": 0.77, "CDH1-null viability vs mock": 0.72}
{"gene knocked down": "C1orf146", "CDH1-null / parental viability ratio": 0.81, "CDH1-null viability vs mock": 0.63}
{"gene knocked down": "EFNA5", "CDH1-null / parental viability ratio": 0.84, "CDH1-null viability vs mock": 0.77}

2 successive reagents already listed, quoted:
{"gene knocked down": "SEC24A", "CDH1-null / parental viability ratio": 0.9, "CDH1-null viability vs mock": 0.92}
{"gene knocked down": "AP1S3", "CDH1-null / parental viability ratio": 0.95, "CDH1-null viability vs mock": 0.8}

The list goes on:
{"gene knocked down": "OR52B4", "CDH1-null / parental viability ratio": 0.9, "CDH1-null viability vs mock": 0.78}
{"gene knocked down": "RAD9A", "CDH1-null / parental viability ratio": 0.85, "CDH1-null viability vs mock": 0.82}
{"gene knocked down": "ENAM", "CDH1-null / parental viability ratio": 1.23, "CDH1-null viability vs mock": 1.08}
{"gene knocked down": "CCDC178", "CDH1-null / parental viability ratio": 1.23, "CDH1-null viability vs mock": 0.7}
{"gene knocked down": "CSF2RA", "CDH1-null / parental viability ratio": 0.82, "CDH1-null viability vs mock": 0.8}
{"gene knocked down": "GNAI1", "CDH1-null / parental viability ratio": 0.92, "CDH1-null viability vs mock": 0.76}
{"gene knocked down": "ANKRD11", "CDH1-null / parental viability ratio": 1.14, "CDH1-null viability vs mock": 1.05}
{"gene knocked down": "MSANTD1", "CDH1-null / parental viability ratio": 1.11, "CDH1-null viability vs mock": 1.14}
{"gene knocked down": "SIRT4", "CDH1-null / parental viability ratio": 1.13, "CDH1-null viability vs mock": 1.08}
{"gene knocked down": "TASOR", "CDH1-null / parental viability ratio": 0.88, "CDH1-null viability vs mock": 0.79}
{"gene knocked down": "H2BC18", "CDH1-null / parental viability ratio": 1, "CDH1-null viability vs mock": 0.9}
{"gene knocked down": "PTGIR", "CDH1-null / parental viability ratio": 1.17, "CDH1-null viability vs mock": 0.7}
{"gene knocked down": "PDE9A", "CDH1-null / parental viability ratio": 1.58, "CDH1-null viability vs mock": 1.55}
{"gene knocked down": "OR4D2", "CDH1-null / parental viability ratio": 0.98, "CDH1-null viability vs mock": 0.54}
{"gene knocked down": "GTF2H3", "CDH1-null / parental viability ratio": 1.06, "CDH1-null viability vs mock": 1.09}
